Laboratory results as given in the supplement of paper PMC7877785.
± gives the uncertainty stated by the source. Many of these values have a large error.

Assay: self-splicing fitness, log relative to wild type (ln ratio); higher = more splicing; Tetrahymena group I intron in knt gene, E. coli kanamycin selection, DiMSum; sequences stand for … in CUCUCU…GGAGGGAAAAGUUAUCAGGCAUGCACCUGGUAGCUAGUCUUUAAACCAAUAGAUUGCAUCGGUUUAAAAGGCAAGACCGUCAAAUUGCGGGAAAGGGGUCAACAGCCGUUCAGUACCAAGUCUCAGGGGAAACUUUGAGAUGGCCUUGCAAAGGGUAUGGUAAUAAGCUGACGGACAUGGUCCUAACCACGCAGCCAAGUCCUAAGUCAACAGAUCUUCUGUUGAUAUGGAUGCAGUUCACAGACUAAAUGUCGGUCGGGGAAGAUGUAUUCUUCUCAUAAGAUAUAGUCGGACCUCUCCUUAAUGGGAGCUAGCGGAUGAAGUGAUGCAACACUGGAGCCGCUGGGAACUAAUUUGUAUGCGAAAGUAUAUUGAUUAGUUUUGGAGUACUCGUGGUCG
In short: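 Six replicate transformations of E. coli BL21(DE3) with a pET-22b(+) library were grown overnight at 37°C or 30°C. The library randomised all eight P1ex-region intron nucleotides, the intron lying in the knt kanamycin-resistance gene, and plates were LB agar with or without 25 μg/mL kanamycin plus 100 μg/mL carbenicillin, 50 μM IPTG and 0.2% rhamnose. Pooled colonies were amplicon-sequenced on an Illumina HiSeq 2500, and fitness is the DiMSum error-weighted combination of wild-type-normalised replicate fold changes, kanamycin versus none.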

GCCCAGCAAUAUUACGAAGA
self-splicing fitness (ln) (30 °C): -1.46 ± 0.12 | self-splicing fitness (ln) (37 °C): -0.344 ± 0.14

AGCGAGCAAUAUUACGGAUG
self-splicing fitness (ln) (30 °C): -3.91 ± 0.75 | self-splicing fitness (ln) (37 °C): -3.13 ± 0.74

CGAGAGCAAUAUUACGUCCG
self-splicing fitness (ln) (30 °C): -1.23 ± 0.91 | self-splicing fitness (ln) (37 °C): -1.17 ± 0.53

CAGGAGCAAUAUUACGUCCC
self-splicing fitness (ln) (37 °C): -1.33 ± 1.2

GGUUAGCAAUAUUACGUAAC
self-splicing fitness (ln) (37 °C): -1.39 ± 1.2

CGUGAGCAAUAUUACGCAAA
self-splicing fitness (ln) (30 °C): -3.58 ± 0.74

ACGGAGCAAUAUUACGCUAA
self-splicing fitness (ln) (30 °C): -2.57 ± 0.77

UCGAAGCAAUAUUACGAGGC
self-splicing fitness (ln) (30 °C): -4.07 ± 0.73

UGCGAGCAAUAUUACGCGCA
self-splicing fitness (ln) (37 °C): -1.26 ± 0.64

AGCGAGCAAUAUUACGCUAC
self-splicing fitness (ln) (30 °C): -3.34 ± 1.1 | self-splicing fitness (ln) (37 °C): -1.98 ± 0.52

UGCCAGCAAUAUUACGCUUC
self-splicing fitness (ln) (30 °C): -3.19 ± 0.23 | self-splicing fitness (ln) (37 °C): -1.86 ± 0.22

GGGGAGCAAUAUUACGAUAG
self-splicing fitness (ln) (30 °C): -4.34 ± 0.72 | self-splicing fitness (ln) (37 °C): -2.3 ± 1.1

UCGGAGCAAUAUUACGCUUU
self-splicing fitness (ln) (30 °C): -4.01 ± 0.53

UAGCAGCAAUAUUACGGCCC
self-splicing fitness (ln) (30 °C): -2.71 ± 1.1

GUGCAGCAAUAUUACGCCGG
self-splicing fitness (ln) (37 °C): -2.05 ± 0.67

CGAGAGCAAUAUUACGCUGG
self-splicing fitness (ln) (37 °C): -1.85 ± 0.65

AAGGAGCAAUAUUACGAACA
self-splicing fitness (ln) (30 °C): -3.77 ± 1 | self-splicing fitness (ln) (37 °C): -1.69 ± 0.84

GUGUAGCAAUAUUACGGAAC
self-splicing fitness (ln) (30 °C): -2.86 ± 0.62 | self-splicing fitness (ln) (37 °C): -1.18 ± 0.92

UUAUAGCAAUAUUACGAGAG
self-splicing fitness (ln) (30 °C): -3.08 ± 0.67

CACGAGCAAUAUUACGACCC
self-splicing fitness (ln) (37 °C): -1.07 ± 0.61

CCUUAGCAAUAUUACGGCGC
self-splicing fitness (ln) (37 °C): -3.7 ± 0.59

UGCGAGCAAUAUUACGUUGC
self-splicing fitness (ln) (30 °C): -2.85 ± 0.64

GGGUAGCAAUAUUACGCACC
self-splicing fitness (ln) (37 °C): -0.681 ± 1.4

GUAGAGCAAUAUUACGAAUU
self-splicing fitness (ln) (30 °C): -2.35 ± 0.21 | self-splicing fitness (ln) (37 °C): -2.01 ± 0.35

ACAGAGCAAUAUUACGCCUG
self-splicing fitness (ln) (30 °C): -2.47 ± 1.1

CGGAAGCAAUAUUACGGCCG
self-splicing fitness (ln) (30 °C): -3.66 ± 0.53 | self-splicing fitness (ln) (37 °C): -1.81 ± 0.51

UCUAAGCAAUAUUACGAUUG
self-splicing fitness (ln) (30 °C): -3.4 ± 0.18 | self-splicing fitness (ln) (37 °C): -2.26 ± 0.17

AUACAGCAAUAUUACGUAGC
self-splicing fitness (ln) (30 °C): -3.19 ± 0.21 | self-splicing fitness (ln) (37 °C): -2.45 ± 0.23

UAAUAGCAAUAUUACGGUAC
self-splicing fitness (ln) (30 °C): -3.69 ± 0.43 | self-splicing fitness (ln) (37 °C): -2.37 ± 0.37

CCCGAGCAAUAUUACGCAAC
self-splicing fitness (ln) (30 °C): -2.46 ± 0.51 | self-splicing fitness (ln) (37 °C): -2.23 ± 0.34

ACUUAGCAAUAUUACGUAUC
self-splicing fitness (ln) (30 °C): -3.56 ± 0.22 | self-splicing fitness (ln) (37 °C): -2.37 ± 0.24

AUGCAGCAAUAUUACGAUAC
self-splicing fitness (ln) (37 °C): -2.58 ± 0.62

UAGGAGCAAUAUUACGAAGA
self-splicing fitness (ln) (30 °C): -3.62 ± 0.6 | self-splicing fitness (ln) (37 °C): -2.9 ± 0.61

AGUGAGCAAUAUUACGCAAC
self-splicing fitness (ln) (30 °C): -3.96 ± 0.76 | self-splicing fitness (ln) (37 °C): -1.59 ± 0.62

UCGAAGCAAUAUUACGAACU
self-splicing fitness (ln) (30 °C): -2.74 ± 0.78 | self-splicing fitness (ln) (37 °C): -2.27 ± 0.64

UUGGAGCAAUAUUACGCCGU
self-splicing fitness (ln) (30 °C): -3.82 ± 1 | self-splicing fitness (ln) (37 °C): -0.699 ± 0.61

UUCGAGCAAUAUUACGCCGG
self-splicing fitness (ln) (37 °C): -2.18 ± 0.64

GCAAAGCAAUAUUACGAGAC
self-splicing fitness (ln) (30 °C): -4.04 ± 0.52 | self-splicing fitness (ln) (37 °C): -2.63 ± 0.43

GGGCAGCAAUAUUACGCAUA
self-splicing fitness (ln) (30 °C): -1 ± 0.092 | self-splicing fitness (ln) (37 °C): 0.38 ± 0.13

GUUGAGCAAUAUUACGAAGG
self-splicing fitness (ln) (30 °C): -3.35 ± 0.41 | self-splicing fitness (ln) (37 °C): -2.68 ± 0.4

CACGAGCAAUAUUACGACCA
self-splicing fitness (ln) (30 °C): -1.79 ± 0.56 | self-splicing fitness (ln) (37 °C): -2.16 ± 0.65

CACAAGCAAUAUUACGCAGC
self-splicing fitness (ln) (37 °C): -3.88 ± 0.72

GGAGAGCAAUAUUACGAUGA
self-splicing fitness (ln) (37 °C): -3.21 ± 1

AUUGAGCAAUAUUACGGGGC
self-splicing fitness (ln) (30 °C): -3.06 ± 0.26 | self-splicing fitness (ln) (37 °C): -3.09 ± 0.3

UACUAGCAAUAUUACGGCCG
self-splicing fitness (ln) (30 °C): 0.508 ± 0.14 | self-splicing fitness (ln) (37 °C): 0.00712 ± 0.17

CGGGAGCAAUAUUACGCCAA
self-splicing fitness (ln) (30 °C): -2.21 ± 1.1 | self-splicing fitness (ln) (37 °C): -1.42 ± 0.59

CGUAAGCAAUAUUACGGUCA
self-splicing fitness (ln) (30 °C): -2.2 ± 0.15 | self-splicing fitness (ln) (37 °C): -0.467 ± 0.12

CGCGAGCAAUAUUACGAAGA
self-splicing fitness (ln) (30 °C): -3.34 ± 0.54

UUGGAGCAAUAUUACGGAGC
self-splicing fitness (ln) (37 °C): -1.85 ± 0.66

CAACAGCAAUAUUACGCGUA
self-splicing fitness (ln) (30 °C): -1.55 ± 0.093 | self-splicing fitness (ln) (37 °C): -1.06 ± 0.088

CUCGAGCAAUAUUACGCAUA
self-splicing fitness (ln) (37 °C): -3.16 ± 0.6

UGUGAGCAAUAUUACGACUC
self-splicing fitness (ln) (37 °C): -1.13 ± 1.2

GUCAAGCAAUAUUACGACCA
self-splicing fitness (ln) (30 °C): -3.2 ± 0.67 | self-splicing fitness (ln) (37 °C): -2.27 ± 0.55

GUGGAGCAAUAUUACGAUUG
self-splicing fitness (ln) (37 °C): -1.47 ± 0.55

CAAUAGCAAUAUUACGCAGC
self-splicing fitness (ln) (30 °C): -4.47 ± 0.72 | self-splicing fitness (ln) (37 °C): -1.08 ± 0.79

AUCGAGCAAUAUUACGAAUC
self-splicing fitness (ln) (30 °C): -2.84 ± 0.75 | self-splicing fitness (ln) (37 °C): -3.41 ± 0.74
